{"sequences": {"note": "The chains behind the UniProt entries cited, without tags or fusion partners. Where a name states a change or a piece, a line headed by the entry shows the natural chain unless it says otherwise.", "UniProt Q9C0K0": "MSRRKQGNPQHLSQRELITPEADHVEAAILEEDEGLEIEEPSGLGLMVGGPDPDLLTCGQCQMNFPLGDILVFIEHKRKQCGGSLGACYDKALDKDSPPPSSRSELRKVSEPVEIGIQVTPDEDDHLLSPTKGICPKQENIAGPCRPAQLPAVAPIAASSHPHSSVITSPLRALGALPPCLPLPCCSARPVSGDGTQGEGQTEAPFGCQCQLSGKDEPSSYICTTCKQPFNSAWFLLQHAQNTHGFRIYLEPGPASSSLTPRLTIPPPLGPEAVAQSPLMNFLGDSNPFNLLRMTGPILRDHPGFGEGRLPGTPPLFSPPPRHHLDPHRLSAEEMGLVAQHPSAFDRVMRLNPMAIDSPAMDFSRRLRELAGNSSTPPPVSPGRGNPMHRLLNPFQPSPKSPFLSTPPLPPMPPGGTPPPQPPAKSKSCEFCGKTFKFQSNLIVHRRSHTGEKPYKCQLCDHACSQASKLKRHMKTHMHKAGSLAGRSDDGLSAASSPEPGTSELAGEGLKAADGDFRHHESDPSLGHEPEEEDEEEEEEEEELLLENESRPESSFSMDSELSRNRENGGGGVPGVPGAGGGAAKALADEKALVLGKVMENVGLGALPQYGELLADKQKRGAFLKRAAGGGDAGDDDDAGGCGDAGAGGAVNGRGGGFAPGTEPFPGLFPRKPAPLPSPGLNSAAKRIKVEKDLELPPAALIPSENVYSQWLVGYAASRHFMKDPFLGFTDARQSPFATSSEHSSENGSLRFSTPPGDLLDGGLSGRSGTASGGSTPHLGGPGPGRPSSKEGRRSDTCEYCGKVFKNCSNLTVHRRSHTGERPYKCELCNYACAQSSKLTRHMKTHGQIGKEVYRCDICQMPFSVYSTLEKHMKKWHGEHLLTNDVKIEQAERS", "UniProt Q92769": "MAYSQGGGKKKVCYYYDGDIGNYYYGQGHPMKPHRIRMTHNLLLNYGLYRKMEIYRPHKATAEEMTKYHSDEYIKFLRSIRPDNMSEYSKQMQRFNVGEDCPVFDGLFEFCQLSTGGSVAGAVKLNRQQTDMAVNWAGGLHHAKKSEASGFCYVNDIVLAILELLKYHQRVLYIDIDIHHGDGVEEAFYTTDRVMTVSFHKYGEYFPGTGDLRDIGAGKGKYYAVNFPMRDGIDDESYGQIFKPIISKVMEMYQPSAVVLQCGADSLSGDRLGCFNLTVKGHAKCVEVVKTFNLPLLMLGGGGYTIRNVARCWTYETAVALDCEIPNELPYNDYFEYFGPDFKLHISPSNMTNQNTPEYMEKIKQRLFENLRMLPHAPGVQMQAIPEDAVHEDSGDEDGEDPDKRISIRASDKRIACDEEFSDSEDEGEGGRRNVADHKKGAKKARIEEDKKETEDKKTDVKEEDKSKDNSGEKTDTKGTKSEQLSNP"}, "source": "paper PMC6644156", "about": "“A de novo substitution in BCL11B leads to loss of interaction with transcriptional complexes and craniosynostosis” (Human Molecular Genetics, 2019)", "key": {"[1]": {"target": "FLAG-BCL11B p.R3S (UniProt Q9C0K0)", "assay": "co-IP; anti-FLAG immunoprecipitation of FLAG-BCL11B or FLAG-BCL11B p.R3S from native extracts of transiently transfected HEK293T cells (20 mM HEPES pH 7.4, 250 mM NaCl, 2 mM EDTA, 10% glycerol, 0.5% NP-40); blots probed for BCL11B, MTA2, HDAC2, EZH2 and Myc (Myc-SIRT1)"}, "[2]": {"target": "FLAG-BCL11B (UniProt Q9C0K0)", "assay": "co-IP; anti-FLAG immunoprecipitation of FLAG-BCL11B or FLAG-BCL11B p.R3S from native extracts of transiently transfected HEK293T cells (20 mM HEPES pH 7.4, 250 mM NaCl, 2 mM EDTA, 10% glycerol, 0.5% NP-40); blots probed for BCL11B, MTA2, HDAC2, EZH2 and Myc (Myc-SIRT1)"}}, "note": "These are yes or no findings as the source states them, for the method shown. Binding seen in cells or lysates may run through a third protein. Some binding calls cover weakened binding; strength is not graded here.", "data": [{"substance": "HDAC2 (from UniProt Q92769 1-488)", "values": [{"measurement": "binding", "setting": "[1]", "value": "no binding"}, {"measurement": "binding", "setting": "[2]", "value": "binds"}]}]}
